PubChem BioAssay AID1259308 – NCATS | 2017

Purpose: 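Genes whose loss raises luciferase production in HEK293 cells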 (primary screen)
System: human HEK293 embryonic kidney cells stably expressing firefly luciferase (HEK-CMV-Luc2-Hygro)
Reagents: single siRNA against human genes, 0.8 pmol siRNA per well
Timing: 72 h
Measurement: 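Reporter luminescence and viable-cell signal on separate replicate plates, given as percent of non-targeting control and median/MAD z-scores, plus per-cell luciferase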
Scale: total luciferase, z-score and total luciferase, % of control: higher = more reporter protein produced
Hit rule: 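Active when the median/MAD z-score for overall luciferase is greater than 3; a gene was taken forward for validation with new siRNAs if at least two of its three siRNAs passed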
Calls: active = raised luciferase; inactive = no rise
In all, the deposit lists about 59,000 reagents; below is an unselected part. Over the whole deposit, about 1,510 (2.6%) are marked active. 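Calls use total luciferase alone and ignore viability, so some active siRNAs may act by altering cell number.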 Reagents against one gene are numbered here. Not all columns of the deposit are shown.

KIF16B (kinesin family member 16B) #1 | total luciferase, z-score = -0.865; total luciferase, % of control = 64.7; outcome = inactive
KIF16B (kinesin family member 16B) #2 | total luciferase, z-score = 0.434; total luciferase, % of control = 90.5; outcome = inactive
KIF16B (kinesin family member 16B) #3 | total luciferase, z-score = -0.549; total luciferase, % of control = 71; outcome = inactive
ALX4 (ALX homeobox 4) #1 | total luciferase, z-score = -0.354; total luciferase, % of control = 74.8; outcome = inactive
ALX4 (ALX homeobox 4) #2 | total luciferase, z-score = -1.31; total luciferase, % of control = 55.8; outcome = inactive
ALX4 (ALX homeobox 4) #3 | total luciferase, z-score = -0.501; total luciferase, % of control = 71.9; outcome = inactive
NFIB (nuclear factor I B) #1 | total luciferase, z-score = -0.798; total luciferase, % of control = 66; outcome = inactive
NFIB (nuclear factor I B) #2 | total luciferase, z-score = 0.251; total luciferase, % of control = 86.9; outcome = inactive
NFIB (nuclear factor I B) #3 | total luciferase, z-score = -1.24; total luciferase, % of control = 57.1; outcome = inactive
SRSF9 (serine and arginine rich splicing factor 9) #1 | total luciferase, z-score = -0.44; total luciferase, % of control = 73.1; outcome = inactive
SRSF9 (serine and arginine rich splicing factor 9) #2 | total luciferase, z-score = -0.617; total luciferase, % of control = 69.6; outcome = inactive
SRSF9 (serine and arginine rich splicing factor 9) #3 | total luciferase, z-score = 0.77; total luciferase, % of control = 97.2; outcome = inactive
CFAP410 (cilia and flagella associated protein 410) #1 | total luciferase, z-score = 0.158; total luciferase, % of control = 85; outcome = inactive
CFAP410 (cilia and flagella associated protein 410) #2 | total luciferase, z-score = -0.0494; total luciferase, % of control = 80.9; outcome = inactive
CFAP410 (cilia and flagella associated protein 410) #3 | total luciferase, z-score = -0.602; total luciferase, % of control = 69.9; outcome = inactive
LOC728587 (zinc finger protein 736 pseudogene) #1 | total luciferase, z-score = -0.491; total luciferase, % of control = 72.1; outcome = inactive
LOC728587 (zinc finger protein 736 pseudogene) #2 | total luciferase, z-score = 1.17; total luciferase, % of control = 105; outcome = inactive
LOC728587 (zinc finger protein 736 pseudogene) #3 | total luciferase, z-score = -0.882; total luciferase, % of control = 64.4; outcome = inactive
KPNA2P2 (karyopherin subunit alpha 2 pseudogene 2) #1 | total luciferase, z-score = 0.732; total luciferase, % of control = 96.4; outcome = inactive
KPNA2P2 (karyopherin subunit alpha 2 pseudogene 2) #2 | total luciferase, z-score = -0.786; total luciferase, % of control = 66.2; outcome = inactive
KPNA2P2 (karyopherin subunit alpha 2 pseudogene 2) #3 | total luciferase, z-score = 0.883; total luciferase, % of control = 99.5; outcome = inactive
TFAP2B (transcription factor AP-2 beta) #1 | total luciferase, z-score = 3.06; total luciferase, % of control = 143; outcome = active
TFAP2B (transcription factor AP-2 beta) #2 | total luciferase, z-score = 0.0933; total luciferase, % of control = 83.7; outcome = inactive
TFAP2B (transcription factor AP-2 beta) #3 | total luciferase, z-score = 1.17; total luciferase, % of control = 105; outcome = inactive
LNX2 (ligand of numb-protein X 2) #1 | total luciferase, z-score = -0.0225; total luciferase, % of control = 81.4; outcome = inactive
LNX2 (ligand of numb-protein X 2) #2 | total luciferase, z-score = -0.702; total luciferase, % of control = 67.9; outcome = inactive
LNX2 (ligand of numb-protein X 2) #3 | total luciferase, z-score = -0.357; total luciferase, % of control = 74.8; outcome = inactive
ALPP (alkaline phosphatase, placental) #1 | total luciferase, z-score = -0.0575; total luciferase, % of control = 80.7; outcome = inactive
ALPP (alkaline phosphatase, placental) #2 | total luciferase, z-score = -0.464; total luciferase, % of control = 72.6; outcome = inactive
ALPP (alkaline phosphatase, placental) #3 | total luciferase, z-score = 0.202; total luciferase, % of control = 85.9; outcome = inactive
CFAP52 (cilia and flagella associated protein 52) #1 | total luciferase, z-score = 1.5; total luciferase, % of control = 112; outcome = inactive
CFAP52 (cilia and flagella associated protein 52) #2 | total luciferase, z-score = -0.191; total luciferase, % of control = 78.1; outcome = inactive
CFAP52 (cilia and flagella associated protein 52) #3 | total luciferase, z-score = 0.785; total luciferase, % of control = 97.5; outcome = inactive

A few values from the entries so far:
For “total luciferase, % of control”, KPNA2P2 (karyopherin subunit alpha 2 pseudogene 2) #1 reads 96.4
Value for LNX2 (ligand of numb-protein X 2) #3 under “outcome”: inactive
